Measurements published in publication PMC11739509, “Transport and inhibition of the sphingosine-1-phosphate exporter SPNS2” (Nature Communications, 2025).
No constants are given. Whether binding was seen depends on the method and setting. Sequences can lack the tags named with a protein.

Molecular target: Spinster Homolog 2 (SPNS2), full-length human, tag-cleaved, detergent-solubilised (human) (UniProt Q8IVW8)
Assay: SEC; Superdex 200 10/300 GL; 150 mM NaCl, 20 mM HEPES pH 7.5, 0.025% DDM or 0.002% LMNG; both purified

B1: Spinster Homolog 2 (SPNS2), full-length human, tag-cleaved, detergent-solubilised (protein, UniProt Q8IVW8 1-549)
chain: MMCLECASAAAGGAEEEEADAERRRRRRGAQRGAGGSGCCGARGAGGAGVSAAGDEVQTLSGSVRRAPTGPPGTPGTPGCAATAKGPGAQQPKPASLGRGRGAAAAILSLGNVLNYLDRYTVAGVLLDIQQHFGVKDRGAGLLQSVFICSFMVAAPIFGYLGDRFNRKVILSCGIFFWSAVTFSSSFIPQQYFWLLVLSRGLVGIGEASYSTIAPTIIGDLFTKNTRTLMLSVFYFAIPLGSGLGYITGSSVKQAAGDWHWALRVSPVLGMITGTLILILVPATKRGHADQLGDQLKARTSWLRDMKALIRNRSYVFSSLATSAVSFATGALGMWIPLYLHRAQVVQKTAETCNSPPCGAKDSLIFGAITCFTGFLGVVTGAGATRWCRLKTQRADPLVCAVGMLGSAIFICLIFVAAKSSIVGAYICIFVGETLLFSNWAITADILMYVVIPTRRATAVALQSFTSHLLGDAGSPYLIGFISDLIRQSTKDSPLWEFLSLGYALMLCPFVVVLGGMFFLATALFFVSDRARAEQQVNQLAMPPASVKV
- binding: no binding
